This is an account of results in patent US20190309093A1.

By UniProt entry, the sequences of proteins in these tests, tags left out.
UniProt Q9NZQ7: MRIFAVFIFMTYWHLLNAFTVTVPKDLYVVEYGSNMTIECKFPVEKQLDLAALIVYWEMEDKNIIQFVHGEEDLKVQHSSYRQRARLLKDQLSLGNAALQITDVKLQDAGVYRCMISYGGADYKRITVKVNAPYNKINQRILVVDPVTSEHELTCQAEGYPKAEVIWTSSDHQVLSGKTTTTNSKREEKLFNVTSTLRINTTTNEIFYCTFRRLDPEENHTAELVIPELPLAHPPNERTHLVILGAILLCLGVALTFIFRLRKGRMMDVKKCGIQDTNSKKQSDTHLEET

These are yes or no findings as the source states them, for the method shown. Some binding calls cover weakened binding; strength is not graded here.

The target in the assay is human PD-L1 (human) (UniProt Q9NZQ7). Nature of the assay: label-free kinetics on OCTET QKe, PD-L1 on AHC biosensor.

B1: YBL-007 (antibody, V domains shown)
VH: QMQLVQSGAEVKKPGSSVKVSCKASGGTFSSYAISWVRQAPGQGLEWMGRIIPILGIANYAQKFQGRVTITADKSTSTAYMELSSLRSEDTAVYYCAKPRDGYNLVAFDIWGQGTMVTVSS
VL: QLVLTQPPSVSGAPGQRVTISCTGSSSNIGAGYDVHWYQQLPGAAPKLLIYGDINRPSGVPDRFSGSKSGISASLAITGLQAEDEADYYCQSYDSSLSGGVFGGGTKLTVLR
For B1, the binding entry is on record as “binds”.
